# Laboratory results: paper PMC7819943, “Rice protein-binding microarrays: a tool to detect cis-acting elements near promoter regions in rice”
# The list shows a part of the results.
# Biological target: T1, OsSMF1 (Oryza sativa, UniProt Q6ZLB0 1-436)
# T1 sequence: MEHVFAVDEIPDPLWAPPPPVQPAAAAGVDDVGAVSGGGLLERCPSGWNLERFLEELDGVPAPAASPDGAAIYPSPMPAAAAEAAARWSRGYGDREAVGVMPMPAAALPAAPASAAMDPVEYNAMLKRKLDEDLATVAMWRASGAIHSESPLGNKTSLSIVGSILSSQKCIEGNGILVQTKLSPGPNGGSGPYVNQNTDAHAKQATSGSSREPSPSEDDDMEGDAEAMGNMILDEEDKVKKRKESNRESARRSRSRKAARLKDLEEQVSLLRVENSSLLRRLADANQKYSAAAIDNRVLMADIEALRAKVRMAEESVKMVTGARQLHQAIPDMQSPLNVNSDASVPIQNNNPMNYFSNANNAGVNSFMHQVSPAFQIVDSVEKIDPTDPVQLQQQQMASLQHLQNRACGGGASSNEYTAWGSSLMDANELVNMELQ
# Test: protein-binding microarray (RPBM); PBS, 2% BSA, 51.3 ng/ul salmon testes DNA, 50 uM zinc acetate, 200 nM TF, 25 C, 1 h; high values mean tight binding
# Details: protein: recombinant; tags: N-terminal polyhistidine and DsRed monomer fusion (pET32a); chain copies: 2; label: CyDye5-dUTP incorporated in the synthesized complementary strand; 3' TTTTT single-stranded linker to array surface; dsDNA, one strand shown
# How it was run: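 Polyhistidine-tagged DsRed fusions of transcription factors, joined at the N-terminus, were expressed in E. coli BL21-CodonPlus and isolated on Ni–NTA. They were incubated at 200 nM for 1 h at 25 °C on a custom Agilent array, double-stranded and BSA-blocked, in PBS with 2% BSA, salmon testes DNA and 50 µM zinc acetate. The binding signal is per-feature fluorescence intensity (arbitrary units) read on an Axon 4000B scanner after washing.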
row,Sequence,binding signal
1,AGTTCAACCGTACAAATACCCGCGCATACAGGTCACCTTCCGGAGTCACCTAGTGCAG,4860 fluorescence intensity (a.u.)
2,GAGGGGACATCCCCGTTGTTTGCATGTCACTTAAATGATTCGGAGTCACCTAGTGCAG,3260 fluorescence intensity (a.u.)
3,GATTTATTCATGTAGTACCTTATAGTGACGTAGATAAATCCGGAGTCACCTAGTGCAG,4920 fluorescence intensity (a.u.)
4,ATAAATAAACAAATAATCTTGACTCATCCTAATCCAGAGTCGGAGTCACCTAGTGCAG,4260 fluorescence intensity (a.u.)
5,CATCTCGCTCTCCTCCCTCCTCTCTCCTCTCCTCGTCTCCCGGAGTCACCTAGTGCAG,3910 fluorescence intensity (a.u.)
6,GAGCTCCCAGCCTCCCACCCGTCTGCCACTGACAGGACGTCGGAGTCACCTAGTGCAG,3280 fluorescence intensity (a.u.)
7,GCATAAATAAAGCGGTGCGTGGATCCTACGTATACCAACCCGGAGTCACCTAGTGCAG,3570 fluorescence intensity (a.u.)
8,GAGATATCTTCTTCTCCCTTCAAGAACTCCATGGAAATCTCGGAGTCACCTAGTGCAG,7050 fluorescence intensity (a.u.)
9,GTTTATTATATGTGTTTTGGAATCCTTCGTGTCGACATGACGGAGTCACCTAGTGCAG,3310 fluorescence intensity (a.u.)
10,TCCGATCCGTTTGTTGTTGTTGCCGTGGCGTGCCTTGTGACGGAGTCACCTAGTGCAG,3240 fluorescence intensity (a.u.)
11,TGGGTTGAATATGAGCTTGAATATTGGTGGAGTGATACATCGGAGTCACCTAGTGCAG,3240 fluorescence intensity (a.u.)
12,CAGCTGGCTATAAATCTGTAGCCCGCTGCTCTTCTCTCTCCGGAGTCACCTAGTGCAG,3630 fluorescence intensity (a.u.)
13,AGCGAACGGCCGTCTGCCACGTCATTTTCGCCGCCCTCTGCGGAGTCACCTAGTGCAG,31900 fluorescence intensity (a.u.)
14,CGGACGATCATGAACACATCACCAGGGGCTTAACACGCCACGGAGTCACCTAGTGCAG,4120 fluorescence intensity (a.u.)
15,TTGGTTGGATGGATGACGTTGCTGTGGCCGGCTGTTTCCACGGAGTCACCTAGTGCAG,4190 fluorescence intensity (a.u.)
16,ATAAAGTAACACATACACAAAGCCACATCATCAATATTTTCGGAGTCACCTAGTGCAG,8990 fluorescence intensity (a.u.)
17,GTATGACGCCGTTGACTTTTCGATCAACGTTTGACTATTTCGGAGTCACCTAGTGCAG,3150 fluorescence intensity (a.u.)
18,TTCATGGTTGGGCTGCCTGGCACGTCACGCCCCAATGCGTCGGAGTCACCTAGTGCAG,12500 fluorescence intensity (a.u.)
19,ATGTGTAATGACATGACTAGGCATTCCCTTCAGTTAGTCTCGGAGTCACCTAGTGCAG,9940 fluorescence intensity (a.u.)
20,ACGCAATATGTAAACCGTACACGTACATACCTACTAGGTACGGAGTCACCTAGTGCAG,3420 fluorescence intensity (a.u.)
21,GCAACGTCGTCGAGGCCGTCCGCCACGTGCGCTCCGTCATCGGAGTCACCTAGTGCAG,7380 fluorescence intensity (a.u.)

# Looked up one by one from the entries so far, 2 records:
row,Sequence,binding signal
2,GAGGGGACATCCCCGTTGTTTGCATGTCACTTAAATGATTCGGAGTCACCTAGTGCAG,3260 fluorescence intensity (a.u.)
8,GAGATATCTTCTTCTCCCTTCAAGAACTCCATGGAAATCTCGGAGTCACCTAGTGCAG,7050 fluorescence intensity (a.u.)

# Going on with the list.

row,Sequence,binding signal
1,TCGTGCTGACAACATATATACGTGCTCGATCGTACCACGGCGGAGTCACCTAGTGCAG,6560 fluorescence intensity (a.u.)
2,CTTGCATATGCACTGTCACTCTCGTACTAGGGTGTCATGCCGGAGTCACCTAGTGCAG,5420 fluorescence intensity (a.u.)
3,TGACCGTTCTTCTTATTTGAAATTTTCTTATGATTAGCATCGGAGTCACCTAGTGCAG,22600 fluorescence intensity (a.u.)
4,ATGTTTCTTACATTTTGTAACGTCATCCATGTTGCTGTGACGGAGTCACCTAGTGCAG,4410 fluorescence intensity (a.u.)
5,GAGTAGTTGATGACTAACCCTGCTGCAACTAAGCTTAGGGCGGAGTCACCTAGTGCAG,3640 fluorescence intensity (a.u.)
6,GACGGGGCGGATGGCTAGCCCCTACCTGACACGTGACACTCGGAGTCACCTAGTGCAG,6090 fluorescence intensity (a.u.)
7,GGATCCGGGCATCTGGCTGCCCCGCCGCCACTCCGCCTAGCGGAGTCACCTAGTGCAG,3330 fluorescence intensity (a.u.)
8,GAATGGACTAATTATTTTGCTTGTCAGCACGACGTCAGAACGGAGTCACCTAGTGCAG,5350 fluorescence intensity (a.u.)
9,CGAGCAAACGCCGAAACGCCATGGAAACAATTTCCTGTCCCGGAGTCACCTAGTGCAG,38100 fluorescence intensity (a.u.)
10,CTGCCTGCGCGCACCACCACCTGCTGCTCTCTCTCTCTCGCGGAGTCACCTAGTGCAG,3650 fluorescence intensity (a.u.)
11,GCCAAGAGGAGAGGAGAGGGATAGGCGGCCGCCGCCCGTGCGGAGTCACCTAGTGCAG,3390 fluorescence intensity (a.u.)
12,GAGCAGGGGCGATCTGTGGCCGTCCATTCGTTGTGGACGTCGGAGTCACCTAGTGCAG,4230 fluorescence intensity (a.u.)
13,GGATGGGCTAGAAGTCACTATTTATCATCAGTGACGTGTCCGGAGTCACCTAGTGCAG,13800 fluorescence intensity (a.u.)
14,TTCCATTATGACCTATACGTGTCAACGAGACATCGACTCTCGGAGTCACCTAGTGCAG,9090 fluorescence intensity (a.u.)
15,GATGGAGCACATCATCATATTGTACAGGGAGAGATGGAGCCGGAGTCACCTAGTGCAG,3340 fluorescence intensity (a.u.)
16,TATAGTAAAATACACGTGTCAACTTATGGAATAGCCTGTACGGAGTCACCTAGTGCAG,16300 fluorescence intensity (a.u.)
17,TAATATATGATCATACTTGTTTTATATACATTGTGTCTTGCGGAGTCACCTAGTGCAG,3190 fluorescence intensity (a.u.)
18,ATCCGGTTTTATCCGACGTGGCGGCTGAGTCGGCGCGGGACGGAGTCACCTAGTGCAG,30700 fluorescence intensity (a.u.)
19,TCTCGTTTTCTCTTACACTGATAAATTTCTAATTTTGTTACGGAGTCACCTAGTGCAG,3280 fluorescence intensity (a.u.)
20,AAAGGACAGCAATCCATGTCACACTGAGATATAAAGTGAGCGGAGTCACCTAGTGCAG,3700 fluorescence intensity (a.u.)
21,CCGGCGGCAGTGGCCCGGCGGCGCCGCCACCTTCCGTGCCCGGAGTCACCTAGTGCAG,43700 fluorescence intensity (a.u.)
